Reference: patent US10905661B2, “Disulfiram and metal salt staggered oral dosing regimen and staggered-release oral unit dosage forms” (Cantex Pharmaceuticals, Inc., priority 2016, dated 2021)
The name of at least one read-out is uncertain.

Assay: Stability of disulfiram with zinc gluconate or copper gluconate after 4 weeks at 40° C.
Assay type: physicochemical
Settings: 4 weeks @ 40° C./75% RH
Description: Stability of disulfiram and zinc gluconate was tested after 4 weeks at 40° C. in 0.1 N HCl. (Table 24).

Structure (SMILES): CCN(CC)C(=S)SSC(=S)N(CC)CC [DSF, bis(diethylthiocarbamoyl) disulfide]
- % Recovery of disulfiram: 99.28%
